According to PubChem BioAssay AID1347076 (National Center for Advancing Translational Sciences (NCATS), 2019):
The campaign covered roughly 400,000 compounds. About 13,000 (3.2%) were called active. Inconclusive means that the source gave no clear call. Such entries were picked first, then a sample of the others. Calls come from the whole dose curve; as a rule, active = well fitted cell-killing curve with a large enough effect; inconclusive = small, poorly fitted or top-dose-only effect, or effect the other way; inactive = flat fitted curve, though single readings scatter. A potency beside an inconclusive call is a rough fit, not a confirmed value.

Experiment: qHTS assay for MDR1-selective chemotherapeutics: Primary screen using the drug-selected MDR subline cells KB-V1; note: nearly all actives have a fitted effect of over 60% in size
Conditions: KB-V1 MDR cells viability, CellTiter-Glo, 72 h; activity change, negative = cytotoxicity: at 46.1 µM (top of the series)
Summary of the method: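 In this primary screen, KB-V1 cells overexpressing P-gp are incubated with library compounds (lowest to highest concentration) for 72 h at 37 degrees C before a luminescent ATP viability read.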
% is set by controls: 0 for no effect and ±100 for the full control effect; potency is the fitted concentration of half-maximal effect.

Structure (SMILES)	activity change, negative = cytotoxicity	Potency
COc1cc(NC(=S)N2CCN(Cc3ccccc3)CC2)cc(OC)c1	inactive: 5.49%	
CCCCNC(=O)C[C@@H]1C[C@@]2(C(=O)OC)CCCCC=C2N(Cc2ccccc2)C1=O		inconclusive: 8.2 µM [cytotoxic, partial curve]
COc1ccc2sc(-c3ccc(SC)cc3)c(/C=C/c3ccc(OC)c(OC)c3)c2c1	inactive: 2.61%	
CCOc1ccc(CCN2C(=S)N([C@@H](CC(C)C)CN3CCCC3CN3C(=S)NC[C@@H]3Cc3ccc(O)cc3)C[C@@H]2Cc2ccccc2)cc1 (some centres undefined)		inconclusive: 25.9 µM [cytotoxic, single point]
Cn1ccc2c(OCC(=O)NCc3ccc(F)cc3)cccc2c1=O		inconclusive: 16.4 µM [cytotoxic, partial curve]
c1ccc2c(-c3csc(-c4ccncc4)n3)c[nH]c2c1		inconclusive: 29.1 µM [cytotoxic, single point]
Cc1nn(-c2cc(N3CCOCC3)ccc2[N+](=O)[O-])c(=O)c2ccccc12		inconclusive: 8.2 µM [cytotoxic, partial curve, poor fit]
CCCc1c(-c2ccccc2Br)ncn1Cc1ccccc1OC		inconclusive: 23.1 µM [cytotoxic, single point]
CSc1ccc(CN2CCCN(C)CC2)cc1	inactive: 1.73%	
CC(=O)Cc1nsc(NC(=O)c2ccc(-c3ccc(F)cc3)o2)n1		inconclusive: 23.1 µM [cytotoxic, single point]
COc1c(Cl)cc(Cl)cc1C(=O)Nc1cccc2cccnc12	inactive: -0.513%	
Nc1ncnc(N)c1NC(=O)c1ccc(OCc2ccccc2)cc1	inactive: 6.35%	
COc1ccccc1N1CCN(S(=O)(=O)c2ccc(Br)s2)CC1		inconclusive: 18.4 µM [cytotoxic, single point]
O=C(Cn1ccc([N+](=O)[O-])n1)NCCc1c[nH]c2ccccc12		inconclusive: 23.1 µM [rising, single point]
CCc1nnc(NC(=O)c2nc(SCc3ccc(F)cc3)ncc2Cl)s1	inactive: 19.1%	
O=c1[nH]c(=O)c2cc([N+](=O)[O-])cc([N+](=O)[O-])c2[nH]1	inactive: 5.38%	
O=C(NC(C(=O)NCCN1CCOCC1)C12CC3CC(CC(C3)C1)C2)C1CCCCC1 (centres undefined)		active: 14.6 µM
O=C(NCc1ccccn1)C(=O)NN=C1CCCCCCC1		inconclusive: 32.6 µM [rising, single point]
CCC12CCCN3CCc4c(n(c5ccccc45)C(O)(C(=O)OC)C1)C32 (centres undefined)	inactive: -0.677%	
O=C(NCCC1=CCCCC1)C1CCC(CNc2nc(=S)[nH]c3ccccc23)CC1 (centres undefined)		active: 20.6 µM
CCC(C(=O)NCc1ccccc1)n1c(-c2cccs2)nc2ccccc21 (centres undefined)		inconclusive: 6.51 µM [cytotoxic, partial curve]
O=C(NCc1ccccn1)[C@@H]1CCCN1C(=O)[C@@H]1CCCN1C(=O)c1ccc(Cl)cc1	inactive: 0%	
COc1ccc(CNC(=O)C(c2ccc(C)o2)N(C(=O)c2csnn2)c2ccc(C(C)C)cc2)cc1 (centres undefined)		inconclusive: 20.6 µM [cytotoxic, partial curve, poor fit]

Three entries from above, reformatted:
Structure (SMILES) | activity change, negative = cytotoxicity | Potency
c1ccc2c(-c3csc(-c4ccncc4)n3)c[nH]c2c1 |  | inconclusive: 29.1 µM [cytotoxic, single point]
Cc1nn(-c2cc(N3CCOCC3)ccc2[N+](=O)[O-])c(=O)c2ccccc12 |  | inconclusive: 8.2 µM [cytotoxic, partial curve, poor fit]
CCCc1c(-c2ccccc2Br)ncn1Cc1ccccc1OC |  | inconclusive: 23.1 µM [cytotoxic, single point]

Further compounds follow.

Structure (SMILES)	activity change, negative = cytotoxicity	Potency
CC(C)[C@@H]1NC(=O)c2cc([N+](=O)[O-])cc(I)c2NCCC[C@@H](C(N)=O)NC(=O)[C@H](CO)NC1=O	inactive: 7.08%	
Cc1ccc2c(COC(=O)c3ccccc3Cl)cc(=O)oc2c1	inactive: -16.2%	
COc1ccc(NC(=S)NCCSc2ccc(Cl)cc2)c(OC)c1		inconclusive: 29.1 µM [cytotoxic, single point]
Cc1nc(NC(=O)c2ccccc2)sc1-c1csc(N)n1		inconclusive: 16.4 µM [cytotoxic, partial curve]
O=C(c1cc(-c2ccc(O)cc2)on1)N1CCOCC1		inconclusive: 18.4 µM [rising, partial curve, poor fit]
CCC(C(=O)NC1CCCCC1)n1nc(C)c2sc3ccccc3c2c1=O (centres undefined)	inactive: 8.1%	
COc1ccc(S(=O)(=O)N2CCC(c3nnnn3-c3ccccc3)CC2)cc1OC		inconclusive: 20.6 µM [cytotoxic, single point]
O=C(O)CCCC(=O)Nc1ccccc1SCCS(=O)(=O)c1ccc(Cl)cc1		inconclusive: 20.6 µM [rising, single point]
COC(=O)N1CCc2c(sc(NC(=O)C3=COCCO3)c2C#N)C1		inconclusive: 2.06 µM [cytotoxic, full curve, poor fit]
O=C(CN1C(=O)c2ccccc2S1(=O)=O)c1ccc2c(c1)OCCCO2	inactive: 23.5%	
CC(=O)Nc1ccc(S(=O)(=O)NC2=C(N3CCN(c4ccc(F)cc4)CC3)C(=O)c3ccccc3C2=O)cc1		inconclusive: 23.1 µM [cytotoxic, single point]
COC(=O)CCN1CCC2CC1c1cc(Cl)ccc12 (centres undefined)	inactive: -0.0248%	
Cc1cccc(C2CC(c3ccccc3)Nc3ncnn32)c1 (centres undefined)		inconclusive: 23.1 µM [cytotoxic, partial curve, poor fit]
O=C(NCc1ccccn1)C1CCN(Cc2cccc(OCc3ccccc3)c2)CC1		inconclusive: 10.3 µM [cytotoxic, partial curve]
CCC(C)(C)n1nnnc1C(c1ccc(C)cc1)N1CCCC1 (centres undefined)		inconclusive: 16.4 µM [cytotoxic, single point]
Cn1nc(C(=O)Nc2ccc(S(=O)(=O)N3CCCCC3)cc2)ccc1=O		inconclusive: 29.1 µM [cytotoxic, single point]
O=C(COC(=O)CNC(=O)c1ccc(Cl)cc1Cl)NNC(=O)c1ccccc1		inconclusive: 20.6 µM [rising, partial curve]
O=C(COC(=O)COc1ccc(Br)cc1)NCc1ccc2c(c1)OCO2		inconclusive: 29.1 µM [rising, single point]
CCCOC(=O)c1ccc(NC(=O)c2nc3nc(C)cc(C)n3n2)cc1		inconclusive: 23.1 µM [cytotoxic, partial curve, poor fit]
CCN1CCN(c2ccc(NC(=O)c3cccc(S(=O)(=O)N4CCCC4)c3)cc2)CC1		inconclusive: 20.6 µM [cytotoxic, single point]
Cc1cc(SCC(=O)c2ccccc2)n2ncc(-c3ccccc3)c2n1	inactive: -21.8%	
Cn1c(SCC(=O)Nc2ccc(N3CCOCC3)c(Cl)c2)nnc1C(O)c1ccccc1 (centres undefined)	inactive: 2.6%	
Cc1ccccc1-c1noc(-c2ccc(NC3CCCC3)c([N+](=O)[O-])c2)n1		inconclusive: 0.146 µM [cytotoxic, full curve, poor fit]

Structure (SMILES)	activity change, negative = cytotoxicity	Potency
Cc1ccc(C)n1NC(=O)c1ccco1		inconclusive: 29.1 µM [rising, single point]
COC(C(=O)Nc1ccc(C(C)=O)cc1)c1ccccc1 (centres undefined)	inactive: -10.6%	
COc1ccc(-n2nc(C(=O)N3CCN(c4cccc(C)c4)C(C)C3)c3c4ccccc4n(C)c3c2=O)cc1Cl (centres undefined)	inactive: 6.53%	
Cc1ccc(S(=O)(=O)N(C)c2ccc(OCC(=O)Nc3nc4ccccc4s3)cc2)cc1		active: 2.91 µM
NC(=O)CC(NC(=O)Cc1ccc(Br)cc1)c1ccc(NCCN2CCOCC2)c([N+](=O)[O-])c1 (centres undefined)		inconclusive: 16.4 µM [rising, partial curve]
O=C(Cn1ncc(Cl)c(Cl)c1=O)c1ccc(Cl)cc1		inconclusive: 20.6 µM [cytotoxic, partial curve]
O=S(=O)(c1ccc2nc(Nc3ccc(Br)cc3F)ccc2c1)N1CCCC1		inconclusive: 16.4 µM [rising, single point]
NNc1nc2c(-c3ccc(Cl)cc3)nnn2c2ccccc12	inactive: -12.2%	
CCOC(=O)/C(C#N)=C1/C=Nc2ccccc2N1		inconclusive: 29.1 µM [cytotoxic, single point]
CCOc1ccc(Br)cc1S(=O)(=O)Nc1ccc(C(=O)OC(C)C(=O)N(C)c2ccccc2)cc1 (centres undefined)		inconclusive: 8.2 µM [cytotoxic, partial curve]
COc1ccc(S(=O)(=O)N2CCCCCC2)cc1N(C)S(=O)(=O)c1ccc(Cl)cc1		active: 20.6 µM
c1c2c(cc3sc(N4CCOCC4)nc13)OCCO2		active: 20.6 µM
COc1cccc(C(=O)NCCCN2CCN(CCCNC(=O)c3cccc(OC)c3)CC2)c1	inactive: 11%	
Cc1nnc2c(NC3CCCCC3)nc3ccccc3n12		inconclusive: 6.51 µM [cytotoxic, full curve, poor fit]
Oc1ccc(/C=C/c2nc(-c3ccccc3O)n(-c3ccccc3)n2)cc1		inconclusive: 29.1 µM [cytotoxic, single point]
O=C(Cc1ccc(Cl)cc1)Nc1cccc(S(=O)(=O)Nc2ccccc2F)c1	inactive: -13.7%	
O=[N+]([O-])c1ccc(NC(=S)NCc2ccncc2)cc1		inconclusive: 20.6 µM [cytotoxic, single point]
CCOC(=O)c1[nH]c2ccc(F)cc2c1NC(=O)C(C)N1CCc2cc(OC)c(OC)cc2C1 (centres undefined)		inconclusive: 20.6 µM [cytotoxic, partial curve, poor fit]
O=C(CSc1oc(-c2cccs2)nc1S(=O)(=O)c1ccccc1)Nc1ccc(F)cc1	inactive: -9.27%	
COC(=O)c1cccc(Nc2ncnc3ccc(C)cc23)c1		inconclusive: 20.6 µM [cytotoxic, partial curve]
CCCCn1c(N)c(N(Cc2ccccc2OC)C(=O)C2=COCCO2)c(=O)[nH]c1=O		inconclusive: 29.1 µM [rising, single point]
CN(C(=O)CSc1nc2ccc(NC(=O)c3ccccc3)cc2s1)c1ccccc1		inconclusive: 29.1 µM [cytotoxic, single point]
CCN1CCN(CCCCOc2ccccc2F)CC1		inconclusive: 18.4 µM [cytotoxic, partial curve, poor fit]
